# Laboratory results from publication PMC11255314.
# The chains behind the UniProt entries cited, without tags or fusion partners.
# UniProt Q9C0C2: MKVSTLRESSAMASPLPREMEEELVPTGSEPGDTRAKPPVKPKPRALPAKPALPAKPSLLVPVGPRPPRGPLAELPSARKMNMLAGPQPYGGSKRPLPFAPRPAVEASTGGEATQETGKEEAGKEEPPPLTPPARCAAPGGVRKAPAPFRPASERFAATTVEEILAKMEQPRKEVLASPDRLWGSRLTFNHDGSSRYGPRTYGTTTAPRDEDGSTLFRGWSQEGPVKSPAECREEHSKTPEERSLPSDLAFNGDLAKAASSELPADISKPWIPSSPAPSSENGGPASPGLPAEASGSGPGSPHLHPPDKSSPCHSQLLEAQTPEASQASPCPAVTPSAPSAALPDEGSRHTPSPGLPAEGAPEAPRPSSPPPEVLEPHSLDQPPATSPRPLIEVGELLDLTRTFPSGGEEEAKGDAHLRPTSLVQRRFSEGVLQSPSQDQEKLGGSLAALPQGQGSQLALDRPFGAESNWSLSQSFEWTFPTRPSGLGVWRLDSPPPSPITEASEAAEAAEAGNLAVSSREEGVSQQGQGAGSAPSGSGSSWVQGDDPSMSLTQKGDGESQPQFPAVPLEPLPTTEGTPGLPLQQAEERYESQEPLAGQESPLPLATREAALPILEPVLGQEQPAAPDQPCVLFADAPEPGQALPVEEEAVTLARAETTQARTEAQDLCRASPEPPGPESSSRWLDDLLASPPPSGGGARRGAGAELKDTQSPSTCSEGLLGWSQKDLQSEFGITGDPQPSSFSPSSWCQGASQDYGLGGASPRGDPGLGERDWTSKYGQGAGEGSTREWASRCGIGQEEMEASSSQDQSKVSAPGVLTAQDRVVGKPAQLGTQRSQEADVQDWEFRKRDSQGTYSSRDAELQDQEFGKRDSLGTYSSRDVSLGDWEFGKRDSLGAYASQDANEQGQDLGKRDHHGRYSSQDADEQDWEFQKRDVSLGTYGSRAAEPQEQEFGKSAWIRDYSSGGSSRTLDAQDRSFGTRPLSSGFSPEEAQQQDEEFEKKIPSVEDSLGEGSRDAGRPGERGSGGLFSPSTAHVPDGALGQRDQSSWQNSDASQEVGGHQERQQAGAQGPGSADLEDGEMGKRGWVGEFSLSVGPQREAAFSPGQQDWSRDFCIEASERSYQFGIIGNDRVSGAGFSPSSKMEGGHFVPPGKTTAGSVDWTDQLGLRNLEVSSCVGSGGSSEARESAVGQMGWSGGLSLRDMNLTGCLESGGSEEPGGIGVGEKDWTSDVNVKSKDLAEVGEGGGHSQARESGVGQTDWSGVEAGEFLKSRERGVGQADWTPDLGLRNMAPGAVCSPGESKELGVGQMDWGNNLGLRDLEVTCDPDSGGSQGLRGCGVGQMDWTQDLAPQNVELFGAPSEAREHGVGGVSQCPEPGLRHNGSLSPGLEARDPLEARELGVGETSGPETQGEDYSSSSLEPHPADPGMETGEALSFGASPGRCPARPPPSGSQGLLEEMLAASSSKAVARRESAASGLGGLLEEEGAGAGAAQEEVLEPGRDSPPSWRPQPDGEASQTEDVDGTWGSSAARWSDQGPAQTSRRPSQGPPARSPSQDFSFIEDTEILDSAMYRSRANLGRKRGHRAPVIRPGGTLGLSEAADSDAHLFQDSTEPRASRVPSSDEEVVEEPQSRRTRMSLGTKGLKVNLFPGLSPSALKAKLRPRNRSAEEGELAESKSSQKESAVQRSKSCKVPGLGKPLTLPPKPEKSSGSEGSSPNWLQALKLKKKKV
# UniProt P19474: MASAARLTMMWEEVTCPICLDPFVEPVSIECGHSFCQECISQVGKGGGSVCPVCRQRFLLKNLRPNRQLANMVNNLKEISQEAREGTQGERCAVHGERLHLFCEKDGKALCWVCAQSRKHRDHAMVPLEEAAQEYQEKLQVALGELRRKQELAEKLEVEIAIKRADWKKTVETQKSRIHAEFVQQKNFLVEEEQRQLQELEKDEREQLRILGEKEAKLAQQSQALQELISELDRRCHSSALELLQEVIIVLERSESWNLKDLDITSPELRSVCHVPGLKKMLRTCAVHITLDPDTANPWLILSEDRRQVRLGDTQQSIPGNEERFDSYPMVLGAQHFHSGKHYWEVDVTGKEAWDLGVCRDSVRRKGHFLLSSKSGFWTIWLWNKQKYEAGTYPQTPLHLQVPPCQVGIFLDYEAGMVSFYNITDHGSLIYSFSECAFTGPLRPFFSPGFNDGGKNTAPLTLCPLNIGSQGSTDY
# Biological target: Flag-TNKS1BP1 (tankyrasel binding protein 1) (UniProt Q9C0C2)
# Assay: affinity purification with mass spectrometry; HEK293T cells stably expressing Flag-TNKS1BP1; anti-Flag IP products, MS analysis
substance,measurement,value
TRIM21 (tripartite motif containing 21) in HEK293T lysate (from UniProt P19474 1-475),binding,binds

# Results are given in words; binding and its absence hold for the method and conditions named. In cells and extracts the contact can be indirect. Here binding means that the protein was enriched with, or labelled near, the bait; the list need not be complete.
